Like-named read-outs stand apart in the source and are kept apart here. Results are given in words; binding and its absence hold for the method and conditions named. Binding seen in cells or lysates may run through a third protein. Here binding means that the protein was enriched with, or labelled near, the bait; the list need not be complete.
What was measured:
[1] = molecular target: 3xHA-TurboID-OTX2 fusion protein (human) (UniProt P32243); assay: proximity labelling; TurboID: 3xHA-TurboID-OTX2 transfected into HDMB03 tumourspheres, 72 h, 500 μM biotin for 15 min, RIPA lysis, streptavidin–sepharose, mass spectrometry, SAINTexpress against TurboID control
[2] = molecular target: 3xHA-TurboID-OTX2 fusion protein (human) (UniProt P32243); assay: as above; remark: listed apart in the source

Amino acid sequences for entries named in this document (tags omitted).
UniProt P32243: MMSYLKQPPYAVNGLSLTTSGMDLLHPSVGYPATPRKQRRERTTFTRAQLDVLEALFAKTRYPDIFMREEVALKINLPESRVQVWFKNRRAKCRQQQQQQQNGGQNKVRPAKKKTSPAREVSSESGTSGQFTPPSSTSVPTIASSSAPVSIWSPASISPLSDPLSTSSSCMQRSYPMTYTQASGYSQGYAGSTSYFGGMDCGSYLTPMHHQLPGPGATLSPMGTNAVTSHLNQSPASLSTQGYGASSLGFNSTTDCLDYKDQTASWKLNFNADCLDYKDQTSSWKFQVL
UniProt Q16650: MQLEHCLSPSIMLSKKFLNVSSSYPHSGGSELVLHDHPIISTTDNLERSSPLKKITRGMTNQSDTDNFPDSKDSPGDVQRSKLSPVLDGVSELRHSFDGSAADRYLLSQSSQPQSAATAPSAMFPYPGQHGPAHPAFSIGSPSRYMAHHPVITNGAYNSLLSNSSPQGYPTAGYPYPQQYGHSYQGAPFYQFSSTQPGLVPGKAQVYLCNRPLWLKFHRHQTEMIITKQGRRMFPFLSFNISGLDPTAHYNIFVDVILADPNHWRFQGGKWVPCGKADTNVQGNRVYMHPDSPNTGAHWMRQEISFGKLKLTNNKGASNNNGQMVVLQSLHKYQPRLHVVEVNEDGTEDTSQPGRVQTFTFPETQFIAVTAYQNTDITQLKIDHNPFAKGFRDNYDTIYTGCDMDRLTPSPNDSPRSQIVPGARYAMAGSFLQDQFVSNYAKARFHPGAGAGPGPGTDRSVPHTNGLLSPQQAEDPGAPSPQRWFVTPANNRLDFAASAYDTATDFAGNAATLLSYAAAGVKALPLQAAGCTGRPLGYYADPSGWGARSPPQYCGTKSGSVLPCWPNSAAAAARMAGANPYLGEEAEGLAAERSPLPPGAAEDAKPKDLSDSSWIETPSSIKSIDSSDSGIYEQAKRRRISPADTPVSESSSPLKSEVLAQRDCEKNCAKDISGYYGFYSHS

binding [1] | Molecule | binding [2]
binds | T-box brain transcription factor 1 (from UniProt Q16650 1-682) | 
 | heterogeneous nuclear ribonucleoprotein M (HNRNPM) (protein, UniProt P52272 1-730) MAAGVEAAAEVAATEIKMEEESGAPGVPSGNGAPGPKGEGERPAQNEKRKEKNIKRGGNRFEPYANPTKRYRAFITNIPFDVKWQSLKDLVKEKVGEVTYVELLMDAEGKSRGCAVVEFKMEESMKKAAEVLNKHSLSGRPLKVKEDPDGEHARRAMQKVMATTGGMGMGPGGPGMITIPPSILNNPNIPNEIIHALQAGRLGSTVFVANLDYKVGWKKLKEVFSMAGVVVRADILEDKDGKSRGIGTVTFEQSIEAVQAISMFNGQLLFDRPMHVKMDERALPKGDFFPPERPQQLPHGLGGIGMGLGPGGQPIDANHLNKGIGMGNIGPAGMGMEGIGFGINKMGGMEGPFGGGMENMGRFGSGMNMGRINEILSNALKRGEIIAKQGGGGGGGSVPGIERMGPGIDRLGGAGMERMGAGLGHGMDRVGSEIERMGLVMDRMGSVERMGSGIERMGPLGLDHMASSIERMGQTMERIGSGVERMGAGMGFGLERMAAPIDRVGQTIERMGSGVERMGPAIERMGLSMERMVPAGMGAGLERMGPVMDRMATGLERMGANNLERMGLERMGANSLERMGLERMGANSLERMGPAMGPALGAGIERMGLAMGGGGGASFDRAIEMERGNFGGSFAGSFGGAGGHAPGVARKACQIFVRNLPFDFTWKMLKDKFNECGHVLYADIKMENGKSKGCGVVKFESPEVAERACRMMNGMKLSGREIDVRIDRNA | binds
